Results reported in PMC2955581.
These are yes or no findings as the source states them, for the method shown. For some of these results: Binding seen in cells or lysates may run through a third protein. Some results given as binding are weak or reduced against the parent protein; the word gives no strength. Where a sequence is shown, tags or fusion partners need not be part of it.

Protein sequences, listed by entry. Tags and fused reporters are not part of them.
UniProt O15372: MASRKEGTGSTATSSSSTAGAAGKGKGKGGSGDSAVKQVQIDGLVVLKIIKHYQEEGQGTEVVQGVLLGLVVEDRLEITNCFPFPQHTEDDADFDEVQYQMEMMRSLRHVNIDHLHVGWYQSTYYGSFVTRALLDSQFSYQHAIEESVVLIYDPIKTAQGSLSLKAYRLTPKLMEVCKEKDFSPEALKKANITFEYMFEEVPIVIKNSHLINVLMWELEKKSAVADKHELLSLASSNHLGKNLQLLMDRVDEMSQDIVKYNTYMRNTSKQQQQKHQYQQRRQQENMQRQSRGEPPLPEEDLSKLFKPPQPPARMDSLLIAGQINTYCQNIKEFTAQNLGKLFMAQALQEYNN

Columns and labels:
[1] = target: T1, GAL4BD-CB (full-length human collybistin fused to the GAL4 DNA-binding domain) (human) (UniProt O43307); test: two-hybrid; Matchmaker GAL4 system 3; GAL4BD baits in pGBKT7, GAL4AD preys; yeast AH109; growth on SD/-Leu/-Trp/-Ade/-His/X-alpha-Gal/5 mM 3-AT, 30°C; library screen and retest by cotransformation
T1 sequence: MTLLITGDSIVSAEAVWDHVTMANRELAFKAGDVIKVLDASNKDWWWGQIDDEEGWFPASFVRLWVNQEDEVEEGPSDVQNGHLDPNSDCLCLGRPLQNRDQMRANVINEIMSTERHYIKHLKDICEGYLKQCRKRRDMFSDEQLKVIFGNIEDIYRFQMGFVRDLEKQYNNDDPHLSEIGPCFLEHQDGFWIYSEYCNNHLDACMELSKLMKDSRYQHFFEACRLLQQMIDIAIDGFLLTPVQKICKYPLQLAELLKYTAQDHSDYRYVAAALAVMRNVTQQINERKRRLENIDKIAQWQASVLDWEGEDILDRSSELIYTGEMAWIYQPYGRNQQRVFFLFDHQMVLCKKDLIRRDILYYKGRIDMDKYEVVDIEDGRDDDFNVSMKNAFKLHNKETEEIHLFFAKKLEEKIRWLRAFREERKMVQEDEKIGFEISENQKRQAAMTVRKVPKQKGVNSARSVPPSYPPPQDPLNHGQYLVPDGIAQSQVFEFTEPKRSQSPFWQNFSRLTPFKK

[2] = target: T2, GAL4BD-CB_(SH3-) (human collybistin lacking the N-terminal SH3 domain fused to the GAL4 DNA-binding domain) (human) (UniProt O43307); test: as above
T2 sequence: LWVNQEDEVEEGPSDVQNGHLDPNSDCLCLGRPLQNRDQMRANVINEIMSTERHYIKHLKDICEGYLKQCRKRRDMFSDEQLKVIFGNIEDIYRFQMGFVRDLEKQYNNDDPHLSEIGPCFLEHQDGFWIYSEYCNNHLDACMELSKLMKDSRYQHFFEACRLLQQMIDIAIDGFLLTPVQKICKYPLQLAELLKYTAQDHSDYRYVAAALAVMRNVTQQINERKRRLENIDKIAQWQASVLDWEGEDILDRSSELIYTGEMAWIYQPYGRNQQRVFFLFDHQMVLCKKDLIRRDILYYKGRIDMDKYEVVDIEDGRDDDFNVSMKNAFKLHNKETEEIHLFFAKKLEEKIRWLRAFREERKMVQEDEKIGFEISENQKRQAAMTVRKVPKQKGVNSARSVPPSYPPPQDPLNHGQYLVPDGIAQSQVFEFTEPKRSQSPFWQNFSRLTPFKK

[3] = target: T3, Flag-CB (N-terminally Flag-tagged full-length human collybistin) (human) (UniProt O43307); test: co-IP; HEK 293T cells cotransfected with Flag- and Myc-tagged proteins; lysis and washes in RIPA buffer; IP with anti-Flag antibody, blot with anti-Myc antibody
T3 sequence: T1 sequence

[4] = target: T4, Flag-gephyrin (N-terminally Flag-tagged full-length human gephyrin) (human) (UniProt Q9NQX3); test: as above
T4 sequence: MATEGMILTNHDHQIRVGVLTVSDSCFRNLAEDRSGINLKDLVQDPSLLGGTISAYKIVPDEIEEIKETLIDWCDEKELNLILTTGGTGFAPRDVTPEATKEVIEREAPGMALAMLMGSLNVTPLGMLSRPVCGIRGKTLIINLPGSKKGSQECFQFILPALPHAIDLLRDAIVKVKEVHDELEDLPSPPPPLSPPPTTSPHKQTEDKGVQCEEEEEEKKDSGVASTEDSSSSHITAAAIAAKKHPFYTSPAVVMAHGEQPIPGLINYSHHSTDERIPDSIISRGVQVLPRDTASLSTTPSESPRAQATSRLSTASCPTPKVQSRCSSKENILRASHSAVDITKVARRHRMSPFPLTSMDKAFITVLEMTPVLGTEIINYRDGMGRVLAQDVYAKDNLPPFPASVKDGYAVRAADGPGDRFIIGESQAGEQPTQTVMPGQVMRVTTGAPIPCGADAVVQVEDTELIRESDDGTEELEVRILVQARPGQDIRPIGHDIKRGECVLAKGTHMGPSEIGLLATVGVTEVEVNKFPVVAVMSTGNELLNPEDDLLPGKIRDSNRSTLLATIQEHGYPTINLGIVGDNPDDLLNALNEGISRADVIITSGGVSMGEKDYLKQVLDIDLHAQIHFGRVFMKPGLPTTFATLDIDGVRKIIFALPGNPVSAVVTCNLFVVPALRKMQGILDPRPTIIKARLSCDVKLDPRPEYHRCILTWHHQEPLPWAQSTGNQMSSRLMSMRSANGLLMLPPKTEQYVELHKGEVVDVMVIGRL

binding [1] | binding [2] | binding [3] | binding [4] | Substance
binds | binds |  |  | GAL4AD-eIF3H (p40 subunit of the eukaryotic translation initiation factor 3, two-hybrid prey) (from UniProt O15372 1-352)
 |  | binds | binds | Myc-eIF3H (N-terminally Myc-tagged full-length human eIF3H) (from UniProt O15372 1-352)
